Measurements: US20250288607A1, “METHODS FOR TREATING SEXUAL DYSFUNCTION ASSOCIATED WITH POLYCYSTIC OVARY SYNDROME (PCOS) OR WITH HYPOACTIVE SEXUAL DESIRE DISORDER (HSDD)” (INSTITUT NATIONAL DE LA SANTÉ ET DE LA RECHERCHE MÉDICALE, priority 2022, published 2025)
Counter-ions that a name gives are not always drawn. At least one compound was matched to its structure with a doubt left.

Test system: control and PAMH female mice
Test: Female sexual behavior test (lordosis, mild and severe rejection quotients) after pharmacological treatment
Type: in vivo
Details: sildenafil citrate 15 mg/kg i.p. one hour before test, P=0.45
Procedure: Female sexual behavior test. Estrus female mice were tested for lordosis behavior over the dark phase following previously reported protocols (25, 40). During the annotation of sexual behavior, we also assessed sexual rejection behaviors over the same period of time.
All behavior tests were videotaped and manually annotated using Behavioral Observation Research Interactive Software (BORIS) (76).
Pharmacological treatments. SNAP: Female mice received a subcutaneous (s.c.) injection with 8 mg/kg S-nitroso-N-Acetyl-DL-Penicillamine (SNAP) (Sigma-Aldrich; catalog ##N3398) diluted in 100 μL of saline 15 minutes before behavioral testing and the chosen dose was based on previous reports (25). Kisspeptin: Female mice received a s.c. injection with 0.52 μg/kg kisspeptin-10 (Kiss-10; rodent metastin (45-54) amide; GeneCust; YY-10-NH2) diluted in 100 μL of saline 30 minutes before behavioral test based on previous reports (25). […]
NO-mediated physiological responses are mostly dictated by intracellular levels of cyclic guanosine monophosphate (cGMP). […] To determine the severity of NO insufficiency in PAMH mice, we administered sildenafil citrate to both groups and evaluated lordosis behavior.

Question: For `CCCc1nn(C)c2c(=O)[nH]c(-c3cc(S(=O)(=O)N4CCN(C)CC4)ccc3OCC)nc12` [sildenafil citrate], which lordosis behavior is on record?
Answer: The lordosis behavior was “did not rescue normal lordosis behavior”.
